Test results from patent US7348421B1, “Methods for production of p-hydroxybenzoate in bacteria” (North Carolina State University, priority 2000, dated 2008).

System: Pseudomonas putida DOT-T1E
Test: Growth on minimal medium with different carbon sources
Format: cell-based
Details: substance as carbon source in liquid M9 minimal medium, exponential growth phase

Row | SMILES | Doubling time [min]
1 | OCC(O)CO [Glycerol, glycerol] | 459
2 | O=C(O)CCC(=O)O [Succinate, succinate] | 125

No dose or concentration is given here for some results.
